Positions count from the first letter of the chain named. Results are given in words; binding and its absence hold for the method and conditions named. Some results given as binding are weak or reduced against the parent protein; the word gives no strength. Each block holds one binder with its values, some of them ahead of it.
Key:
[1] = target: Human PD-L1 extracellular domain Fc fusion protein (PD-L1-Fc) (GenScript, Cat. No.: Z03371) (human) (UniProt Q9NZQ7); assay: hybridoma screen: ELISA on PD-L1-Fc, PD-1 competition ELISA, FACS on CHO/PD-L1 cells
[2] = target: human PD-L1 expressed on CHO-K1 cells (Genscript, Cat #M00543) (human) (UniProt Q9NZQ7); assay: FACS, CHO-K1/human PD-L1 cells
[3] = target: His-tagged PD-L1 ECD protein (ACROBiosystems) (human) (UniProt Q9NZQ7); assay: SPR, supernatant IgG captured, PD-L1-His analyte
[4] = target: His-tagged PD-L1 ECD protein (ACROBiosystems) (human) (UniProt Q9NZQ7); assay: SPR, IgG captured by anti-human Fc, PD-L1-His analyte
[5] = target: cynomolgus PD-L1 overexpressing stable cell line (cynomolgus) (UniProt G7PSE7); assay: FACS, cynomolgus PD-L1 cell line
[6] = target: cynomolgus PD-L1 Fc-fusion protein (cynomolgus) (UniProt G7PSE7); assay: SPR, cyno PD-L1-Fc immobilised, antibody analyte

Chains of the proteins cited; added tags and fusions are not shown. Lines headed by an entry give the natural chain unless they say otherwise; changes in a name come on top.
UniProt Q9NZQ7: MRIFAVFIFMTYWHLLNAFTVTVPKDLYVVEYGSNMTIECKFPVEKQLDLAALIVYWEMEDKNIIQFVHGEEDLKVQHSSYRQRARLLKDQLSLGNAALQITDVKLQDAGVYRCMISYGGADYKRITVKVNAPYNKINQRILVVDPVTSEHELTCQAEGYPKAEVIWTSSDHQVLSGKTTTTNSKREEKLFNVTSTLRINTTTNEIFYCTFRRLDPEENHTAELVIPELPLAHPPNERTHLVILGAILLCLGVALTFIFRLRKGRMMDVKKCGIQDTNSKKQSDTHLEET

B1: 42G2D7C3 (antibody, V domains shown)
VH: DVQLLESGPGLVKPSQSLSLTCSVTGYSITSGYYWNWIRQFPGNNLEWMGSINYDGSNDYNPSLQDRISITRDTSKNQFFLKLNSVTTEDTATYYCARRLDYWGQGTTLIVSS
VL: QIVLTQSPAIMSASPGEKVTISCSASSFINYMYWYQQKPGSSPKPWILRTSTLASGVPARFSGSGSGTSYSLTISSMEAEDAATYYCQQYHSYPLTFGAGTKLELK
binding [1]: binds
binding [2]: binds

B3: 29A8_VH5-VL1.M1 (antibody, human IgG1, kappa, N297A, V domains shown)
VH: EVQLQESGPGLVKPSETLSLTCTVSGYSITSDFAWDWIRQPPGKGLEWIGHIRFSGTTSYNPSLKSRVTISRDTSKNQFSLKLSSVTAADTAVYYCARSTLITKGFFDYWGQGTLVTVSS
VL: DIQMTQSPSSLSASVGDRVTITCRASQDVSPAVAWYQQKPGKAPKLLIYWASTRHTGVPSRFSGSGSGTDFTLTISSLQPEDFATYYCQQHYSTPWTFGQGTKVEIKR
binding [3]: binds
binding [4]: binds
binding [5]: binds
binding [2]: binds
binding [6]: binds

B4: 29A8_VH3-VL1.M1 (antibody, human IgG1, kappa, N297A, V domains shown)
VH: B3 VH with P41F, I49M, V68I, R72V, S80F, V93T, V116L
VL: B3 VL
binding [3]: binds

B6: 53C1_VH3-VL1.M1 (antibody, human IgG1, kappa, N297A, V domains shown)
VH: EVQLVQSGAEVKKPGASVKLSCKASGYIFTGYGITWVRQAPGQGLEWIGEIFPRRVNTYYSEKFKGRATLTADTSTSTAYMELRSLRSDDTAVYFCARDYDPYFALDYWGQGTTVTVSS
VL: DIQMTQSPSSLSASVGDRVTITCRASQDVSTAVDWYQQKPGKAPKLLIYSASYRYTGVPDRFSGSGSGTDFTFTISSLQPEDIATYYCQQHYSIPFTFGQGTKLEIKR
binding [3]: binds
binding [4]: binds
binding [5]: binds
binding [2]: binds
binding [6]: binds

The remaining lines, values ahead:

binding [3]: binds
B2: 29A8_VH2-VL1.M1 (antibody, human IgG1, kappa, N297A, V domains shown)
VH: B3 VH with P41F, I49M, V68I, R72V
VL: B3 VL

binding [3]: binds
B5: 53C1_VH2-VL1.M1 (antibody, human IgG1, kappa, N297A, V domains shown)
VH: B6 VH with L20V, A72T
VL: B6 VL

binding [3]: binds
B7: 53C1_VH3.M3-VL1.M1 (antibody, human IgG1, kappa, N297A, V domains shown)
VH: B6 VH with N57Q
VL: B6 VL
